# Data as given in PubChem BioAssay AID504793 (Drosophila RNAi Screening Center, 2011).
# Aim: 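Whole-genome screen for parts of the DNA damage checkpoint at G2/M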 (primary screen)
# Cells: Drosophila S2R+ cells
# Knock-down reagent: long dsRNA against Drosophila genes, about 0.25 µg dsRNA per well
# Timing: 4 days of dsRNA, then 4 hours of drug before read-out
# Challenge: doxorubicin 0.5 µM for 4 hours to cause double-strand breaks, in cells also given a low, harmless dose of dsRNA against nbs to sensitise the assay
# Measurement: 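Mitotic index as the number of phospho-histone H3-positive cells in each well following doxorubicin, given as raw counts without normalisation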
# Scale: mitotic cells: higher = more cells in mitosis, weaker G2 arrest
# Active means: 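Genes are called active only when high mitotic counts were reproduced with independent dsRNAs and mitosis was checked for delay without damage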
# Calls: active = confirmed in follow-up tests; inactive = not confirmed
# The screen tested about 23,000 reagents; this is an unselected part of those that have a named target and a result. Over the whole deposit, 62 (0.27%) got an active call. 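Calls come from follow-up tests whose scores are not deposited, so confirmed genes may have low counts here; counts are not normalised per plate.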 Raw values are not corrected between plates. Reagents against one gene are numbered here. Names joined by + are all predicted targets of the reagent.
gene knocked down,reagent,"mitotic cells, replicate 1",call
CG3679,1,7,inactive
CG3679,2,5,inactive
CG30279 (retired record),1,4,inactive
CG30279 (retired record),2,9,inactive
Rab9Fb,1,10,inactive
CG14937,1,8,inactive
ATPsynC,1,15,inactive
CG14000,1,4,inactive
CG14362,1,5,inactive
CG13250,1,1,inactive
CG13250,2,5,inactive
QC,1,7,inactive
wwk,1,3,inactive
CG3770,1,6,inactive
CG3280 (retired record),1,7,inactive
Syx17,1,8,inactive
Sema2a,1,3,inactive
Acyp,1,5,inactive
regucalcin,1,17,inactive
regucalcin,2,6,inactive
CG3226,1,6,inactive
puml,1,6,inactive
moody,1,8,inactive
Jon65Aiv,1,10,inactive
Jon65Aiv,2,14,inactive
nmdyn-D6,1,11,inactive
CG2906,1,8,inactive
CG3502,1,6,inactive
kis,1,7,inactive
kis,2,5,inactive
kis,3,12,inactive
kis,4,7,inactive
CG5447,1,7,inactive
CG5447,2,7,inactive
dlg1,1,12,inactive
dlg1,2,4,inactive
dlg1,3,5,inactive
dlg1,4,10,inactive
Gr59b,1,3,inactive
spdo,1,10,inactive
spdo,2,6,inactive
nmo,1,8,inactive
nmo,2,7,inactive
nmo,3,7,inactive
bcn92,1,15,inactive
bcn92,2,4,inactive
PGRP-LE,1,5,inactive
Ostgamma,1,10,inactive
CoRest,1,7,inactive
CoRest,2,12,inactive
CoRest,3,8,inactive
CoRest,4,5,inactive
CG9445,1,4,inactive
Tet,1,1,inactive
Tet,2,7,inactive
Faa,1,5,inactive
VhaAC39-2,1,14,inactive
CG13494,1,3,inactive
CG13494,2,6,inactive
Sgs8,1,10,inactive
DCTN1-p150,1,15,inactive
DCTN1-p150,2,32,inactive
GstE12,1,13,inactive
GstE12,2,9,inactive
L2HGDH,1,9,inactive
L2HGDH,2,4,inactive
CG1271,1,5,inactive
CG1172,1,5,inactive
CG1172,2,2,inactive
CG1172,3,4,inactive
Sec13,1,7,inactive
Rpn10,1,21,inactive
CG4572,1,15,inactive
Tti1,1,7,inactive
Tti1,2,6,inactive
Nckx30C,1,7,inactive
Nckx30C,2,5,inactive
Nckx30C,3,2,inactive
Nckx30C,4,6,inactive
CG32071,1,6,inactive
CG32071,2,13,inactive
Cp7Fc,1,2,inactive
Cp7Fc,2,4,inactive
robo1,1,1,inactive
CG10321,1,6,inactive
CG10321,2,4,inactive
betaNACtes6,1,14,inactive
betaNACtes6,2,5,inactive
fusl,1,4,inactive
fusl,2,6,inactive
CheB93b,1,4,inactive
825-Oak + CG32214 + CG32213,1,8,inactive
Glyp,1,9,inactive
ct,1,19,inactive
ct,2,8,inactive
CG6066,1,5,inactive
CG6066,2,9,inactive
CG6066,3,1,inactive
CG33332,1,5,inactive
CG33332,2,17,inactive
Fas2,1,8,inactive
Fas2,2,10,inactive
Fas2,3,12,inactive
CG30369,1,8,inactive
CG30369,2,3,inactive
CG15293,1,5,inactive
Reg-2,1,5,inactive
Reg-2,2,5,inactive
CG6621,1,7,inactive
CG6621,2,10,inactive

Ordered by “mitotic cells, replicate 1” (high to low): some entries from above
gene knocked down,reagent,"mitotic cells, replicate 1",call
dlg1,4,10,inactive
spdo,1,10,inactive
nmo,1,8,inactive
spdo,2,6,inactive
dlg1,3,5,inactive
Gr59b,1,3,inactive
